Laboratory results from PMC7819943, “Rice protein-binding microarrays: a tool to detect cis-acting elements near promoter regions in rice”.
Some of the results follow.

The chains behind the UniProt entries cited, without tags or fusion partners.
UniProt Q0JBA9, entry or part of it: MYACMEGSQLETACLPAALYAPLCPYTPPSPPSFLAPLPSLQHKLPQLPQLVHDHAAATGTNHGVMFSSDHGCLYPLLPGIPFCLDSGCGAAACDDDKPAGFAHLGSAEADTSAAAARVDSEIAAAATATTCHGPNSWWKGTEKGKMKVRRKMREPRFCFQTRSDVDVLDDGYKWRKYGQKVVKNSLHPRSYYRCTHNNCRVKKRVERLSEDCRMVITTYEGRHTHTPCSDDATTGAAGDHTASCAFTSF

These sequences were tested against OsWRKY34 (Oryza sativa, UniProt Q0JBA9 1-250) (assay: protein-binding microarray (RPBM); PBS, 2% BSA, 51.3 ng/ul salmon testes DNA, 50 uM zinc acetate, 200 nM TF, 25 C, 1 h; high values mean tight binding). Conditions: protein: recombinant; tags: N-terminal polyhistidine and DsRed monomer fusion (pET32a); label: CyDye5-dUTP incorporated in the synthesized complementary strand; 3' TTTTT single-stranded linker to array surface; dsDNA, one strand shown.
In short: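 Binding signal is defined as the fluorescence intensity of each feature in arbitrary units, read on an Axon 4000B scanner. Transcription factors with N-terminal polyhistidine and DsRed fusions came from E. coli BL21-CodonPlus and were purified on Ni–NTA. They were incubated at 200 nM for 1 h at 25 °C on a custom Agilent array that had been made double-stranded with Cy5-dUTP, with 50 µM zinc acetate present, and the array was washed.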

Row | Sequence | binding signal
1 | GATAACTCCAGGAGAATTTACTGAGATGGCCTGGGAGGGGCGGAGTCACCTAGTGCAG | 9560 fluorescence intensity (a.u.)
2 | TAAACCCTAAGTTTCTGTGTCCAACGTTTGACTGTCTGTCCGGAGTCACCTAGTGCAG | 8170 fluorescence intensity (a.u.)
3 | CGTCTTGTCTTGGCGTATGTTGGCTTGTATGTTGTTCCGTCGGAGTCACCTAGTGCAG | 10500 fluorescence intensity (a.u.)
4 | CATGTGCTACTTGTCTTGCCGTTGATCTTGCTGCTCGATTCGGAGTCACCTAGTGCAG | 8380 fluorescence intensity (a.u.)
5 | ATTTTTCTAGTGTTTTGAACTTTTGATCATCCATTTTGTCCGGAGTCACCTAGTGCAG | 9850 fluorescence intensity (a.u.)
6 | TGTCAACCGCGCGCCAAATTCTCCCACATATATCCTCCACCGGAGTCACCTAGTGCAG | 12500 fluorescence intensity (a.u.)
7 | GGAGGTAGATGGAAAAAGTAAATGGTGGAGGGTTGTAATTCGGAGTCACCTAGTGCAG | 11300 fluorescence intensity (a.u.)
8 | ACGGCGACCGCGCCTACCGCTTCCTGTTCGACTGCGTCGCCGGAGTCACCTAGTGCAG | 8220 fluorescence intensity (a.u.)
9 | ACTATTTGTCAATCATACTTCTTTCATGATATTCATTTTGCGGAGTCACCTAGTGCAG | 8070 fluorescence intensity (a.u.)
10 | CCCTCCTTCCCTTTTAGTGGGTCTGTTTTCTTGGAGCGCGCGGAGTCACCTAGTGCAG | 8600 fluorescence intensity (a.u.)
11 | CCATCTCCACCGAGCTCGGCCGTCTGCCCCGCTCATCTCGCGGAGTCACCTAGTGCAG | 11300 fluorescence intensity (a.u.)
12 | ACAAATTGGTCACTGGCTGAATAGTTTCTACATCAGTTAACGGAGTCACCTAGTGCAG | 10200 fluorescence intensity (a.u.)
13 | AGGTGGTGTAGCGCGCGCGGGTGGGGTTGGGTTACGTGGTCGGAGTCACCTAGTGCAG | 15600 fluorescence intensity (a.u.)
14 | GATCATGGCGCGCACCGACCGGTCGTCGTCACTCCAACGTCGGAGTCACCTAGTGCAG | 8960 fluorescence intensity (a.u.)
15 | TTGTCTGAAGGCTGCTGCCTTTGTTTTTTTTTCGTCTGCTCGGAGTCACCTAGTGCAG | 9540 fluorescence intensity (a.u.)
16 | GTCTTAATTGTTCCTCATGTGTTTGTATGTTGTCTGGATTCGGAGTCACCTAGTGCAG | 11600 fluorescence intensity (a.u.)
17 | CAAGGGATTTGTGGAGGGTGGCATCGCGTCCATCGTCGCTCGGAGTCACCTAGTGCAG | 8320 fluorescence intensity (a.u.)
18 | GATTGTAGTTTGTATATGCTGCCCATTTCTGTTGTTCTTTCGGAGTCACCTAGTGCAG | 18900 fluorescence intensity (a.u.)
19 | ACAAACTCGCCGCACACCTGCCACTCCGCCGAGATCTCACCGGAGTCACCTAGTGCAG | 12100 fluorescence intensity (a.u.)
20 | TACCTACTCCCAATGTGAACTGATTCCATCTCTGCTTTCTCGGAGTCACCTAGTGCAG | 8840 fluorescence intensity (a.u.)
21 | TAAGTCCATCCACAATTTCTTTCTGTCAGTTTCCTTGACTCGGAGTCACCTAGTGCAG | 9620 fluorescence intensity (a.u.)

Exported in markdown: entries from further up.

| Row | Sequence | binding signal |
| --- | --- | --- |
| 5 | ATTTTTCTAGTGTTTTGAACTTTTGATCATCCATTTTGTCCGGAGTCACCTAGTGCAG | 9850 fluorescence intensity (a.u.) |
| 13 | AGGTGGTGTAGCGCGCGCGGGTGGGGTTGGGTTACGTGGTCGGAGTCACCTAGTGCAG | 15600 fluorescence intensity (a.u.) |
| 20 | TACCTACTCCCAATGTGAACTGATTCCATCTCTGCTTTCTCGGAGTCACCTAGTGCAG | 8840 fluorescence intensity (a.u.) |

(listing goes on)

Row | Sequence | binding signal
22 | CACCACTCACGCCATCCATCCATCCATCCATCCACCTCTGCGGAGTCACCTAGTGCAG | 8630 fluorescence intensity (a.u.)
23 | TTTATACTTGGACTCTTCTTTTCTTTTTTTTCTTTTTCTCCGGAGTCACCTAGTGCAG | 10700 fluorescence intensity (a.u.)
24 | TTATTGAGTGGGATTTCTCGTTCGGATTTTGATTGTGTTTCGGAGTCACCTAGTGCAG | 8380 fluorescence intensity (a.u.)
25 | GTGGTTGTCTCGCACCCCACCGCCGCTGCTCTCGTTGTTGCGGAGTCACCTAGTGCAG | 8080 fluorescence intensity (a.u.)
26 | CCAGTCGCCATCGCTCTCTTCCACTGGTTCGCTCTCTCCGCGGAGTCACCTAGTGCAG | 9510 fluorescence intensity (a.u.)
27 | TAATTTTTTTTCCTATCATATGATTTATTGTTAAATATACCGGAGTCACCTAGTGCAG | 10300 fluorescence intensity (a.u.)
28 | TGTTCATTCATTTCCTCATCTTTTCTGTGCTCCTTTACAGCGGAGTCACCTAGTGCAG | 9790 fluorescence intensity (a.u.)
29 | CCGTATATTTTTTCCTCTCATTTTCCCCTTTTTCTTTTTGCGGAGTCACCTAGTGCAG | 8160 fluorescence intensity (a.u.)
30 | GCAAGCTGTACTTTTTAAGCATTTCCCCTACGGGATTTTACGGAGTCACCTAGTGCAG | 8650 fluorescence intensity (a.u.)
31 | GGGTGTTATGAGTTGTGTTTGCTGTAGCTTGTCAGCTGTTCGGAGTCACCTAGTGCAG | 10600 fluorescence intensity (a.u.)
32 | GCCGGTGCTCCGCCCGTCGACCAAGCCACTGTGCGCCATGCGGAGTCACCTAGTGCAG | 8450 fluorescence intensity (a.u.)
33 | GTAGGGTAGGGCAGGGCAGAAGAGGTGAGAGGAAAGCAAGCGGAGTCACCTAGTGCAG | 9230 fluorescence intensity (a.u.)
34 | ATGTCATATGATAAAGGGTTCGCATTGAATTTTAACTAATCGGAGTCACCTAGTGCAG | 8720 fluorescence intensity (a.u.)
35 | CACCCTCACTCGCTCGCCATCTTGTCAGCGTACGGACCCTCGGAGTCACCTAGTGCAG | 9370 fluorescence intensity (a.u.)
36 | TGGGTATTTGATTCCTATCTCACTGTATGTGTCAATTGAACGGAGTCACCTAGTGCAG | 9990 fluorescence intensity (a.u.)
37 | GAACTTGTTTTTTGTATTTTTCTTTTCGGTAGCTACTTTCCGGAGTCACCTAGTGCAG | 8020 fluorescence intensity (a.u.)
38 | ACTATTACTACTACTTCAGGTTCTTGCTGTTGATGCATGCCGGAGTCACCTAGTGCAG | 8730 fluorescence intensity (a.u.)
39 | TCTTTTACTCGGCGCGCCTTGTCTCTCTCTCTCAGTACGACGGAGTCACCTAGTGCAG | 9570 fluorescence intensity (a.u.)
40 | GTGTGTGTGGTAGATGTAAGATTGGGAACTTTGTTGGTAACGGAGTCACCTAGTGCAG | 11900 fluorescence intensity (a.u.)
41 | CACGTACCCAACCAAACAAGCACCGCCTTGCGCCAGCCATCGGAGTCACCTAGTGCAG | 8180 fluorescence intensity (a.u.)
42 | GCCATAGTTCATTATGTTGGTAGGATTAATTTTTTTTTTTCGGAGTCACCTAGTGCAG | 8310 fluorescence intensity (a.u.)
